Structures can show the parent of a compound that is named as a salt. Some of the results follow. This data set is noisy: repeats of one test often differ as much as different tests do.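 The human kidney-derived cells carry a stably integrated construct of eight TEAD-binding elements driving luciferase, read by luminescence in a drug-repurposing library screen. A compound counts as a hit when its signal is more than five robust Z scores above the plate mean.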
Test system: HEK293A TEAD-LUC reporter
Assay: TEAD-luciferase reporter activity (YAP activation), robust Z score vs plate; higher = stronger YAP/TEAD activation
Conditions: 24 h

Compound	TEAD-luciferase reporter activity (compound concentration: 2 uM)	TEAD-luciferase reporter activity (compound concentration: 200 nM)	TEAD-luciferase reporter activity (compound concentration: 10 uM)
O=c1[nH]c(=O)n([C@H]2C[C@H](O)[C@@H](CO)O2)cc1I [idoxuridine, APR]	inactive: 2.35	–	–
O=c1[nH]c(=O)n([C@H]2C[C@H](O)[C@@H](CO)O2)cc1I [Idoxuridine]	–	inactive: -1.21	inactive: 2.44
CCOCn1c(Cc2ccccc2)c(C(C)C)c(=O)[nH]c1=O [Emivirine]	inactive: 0.0142	inactive: 0.0545	inactive: 1.9
CCO[C@@H]1OC(=O)C[C@@H]1NC(=O)[C@@H]1CCCN2C(=O)CC[C@H](NC(=O)c3nccc4ccccc34)C(=O)N12 [pralnacasan]	inactive: 1.67	inactive: -0.594	inactive: -1.78
O=C(Oc1ccc2c(c1)CCCN2C(=O)C(Cl)Cl)c1ccco1 [quinfamide]	inactive: -0.38	inactive: -1.76	inactive: 3.79
CC(=O)C(=O)[O-] [Sodium pyruvate]	inactive: -0.257	inactive: 1.33	inactive: -1.05
C[C@@H]1CC[C@]2(C)CC[C@]3(C)C(=CC(=O)C4[C@@]5(C)CC[C@@H](O)[C@](C)(C(=O)O)C5CC[C@]43C)C2[C@H]1C (stereo partly drawn) [11-Keto-beta-boswellic acid]	inactive: -0.559	inactive: 0.247	inactive: -0.138
COc1ccc2[nH]cc(CCNC(=O)c3cc(=O)c(OC)co3)c2c1	inactive: 1.68	inactive: -0.308	inactive: -1.93
NC[C@H]1O[C@H](O[C@H]2[C@H](O)[C@@H](O[C@H]3O[C@H](CO)[C@@H](O)[C@H](N)[C@H]3O)[C@H](N)C[C@@H]2N)[C@H](O)[C@@H](O)[C@@H]1O [Kanamycin]	inactive: -0.625	inactive: 2.85	active: 5.3
O=C(O)Cc1ccccc1Oc1ccc(Cl)cc1Cl [fenclofenac]	inactive: -1.56	inactive: -0.272	inactive: -0.243
CC(C)=CCOc1cc(NC(=S)c2ccoc2)ccc1Cl	inactive: -0.279	inactive: -0.89	inactive: -0.99
CCOc1ccc(Cc2cc([C@@H]3O[C@H](SC)[C@@H](O)[C@H](O)[C@H]3O)ccc2Cl)cc1 [Sotagliflozin]	inactive: 0.224	inactive: -1.17	inactive: 0.855
CCC[C@@H](NC(=O)N1C(=O)C(CC)(CC)[C@H]1Oc1ccc(CC(=O)O)cc1)c1ccc(C)cc1	inactive: -1.02	inactive: 0.276	inactive: -1.31
CCN(CC)CCNc1ccc(CNS(C)(=O)=O)c2sc3ccccc3c(=O)c12	inactive: -0.931	inactive: -2.06	inactive: 0.278
CCOC(=O)Nc1cccc2c1CN(C)CC2c1ccc(Cl)cc1 (configuration not stated)	inactive: -0.31	inactive: -1.19	inactive: 3.51
C[C@]12C=CC(=O)C=C1CC[C@@H]1[C@@H]2[C@@H](O)C[C@@]2(C)[C@H]1CC[C@]2(O)C(=O)OCCl	inactive: 2.12	inactive: 0.311	inactive: -0.475
Cc1nc2ccccn2c(=O)c1CCN1CCC(=C(c2ccc(F)cc2)c2ccc(F)cc2)CC1 [Seganserin]	inactive: -0.833	inactive: -0.452	inactive: 1.54
O=c1cc(-c2ccccc2Cl)c2ccc(OCCc3cncn3Cc3ccccc3)c(CCc3ccccc3)c2o1	inactive: -1.33	inactive: -0.393	inactive: -1.58
Cc1ccccc1NC(=O)C(C)N1CCCC1 (configuration not stated) [Aptocaine]	inactive: -0.87	–	–
Cc1ccccc1NC(=O)C(C)N1CCCC1 (configuration not stated)	–	inactive: 1.67	inactive: 0.202
CCCN1CCCC12Cc1ccccc1CN(C(=O)CCCC(=O)O)C2 (configuration not stated)	–	inactive: -0.119	inactive: 0.162
CC(C)(CCC(C(N)=O)(c1ccccc1)c1ccccc1)N1CC(Oc2cccc(O)c2)C1	inactive: -0.884	inactive: 0.135	inactive: 1.54
CON(Cc1ccc(F)cc1)C(=O)/C=C1\OC(C)(C)OC1=O	inactive: -0.645	inactive: 1.25	inactive: -0.475
COCCNC(=O)COc1ccc(OCCNC[C@H](O)COc2ccccc2)cc1	inactive: -0.176	inactive: -1.35	inactive: 3.68
CC(C)(C)CC(=O)OCC(=O)[C@@]12OC(C)(C)O[C@@H]1C[C@H]1[C@@H]3CCC4=CC(=O)C=C[C@]4(C)[C@@]3(F)[C@@H](O)C[C@@]12C	inactive: 1.95	inactive: -1.79	inactive: 1.3
O=C(Nc1ccc2c(c1)CCN(Cc1ncn[nH]1)C2)c1ccccc1-c1ccc(C(F)(F)F)cc1	inactive: -0.18	inactive: -0.187	inactive: -1.44
CNC=O	–	inactive: -1.75	inactive: 0.468
CNC=O [N-Methylformamide]	inactive: 0.426	–	–

Shown with bars between the fields: entries from further up
Compound | TEAD-luciferase reporter activity (compound concentration: 2 uM) | TEAD-luciferase reporter activity (compound concentration: 200 nM) | TEAD-luciferase reporter activity (compound concentration: 10 uM)
O=c1[nH]c(=O)n([C@H]2C[C@H](O)[C@@H](CO)O2)cc1I [Idoxuridine] | – | inactive: -1.21 | inactive: 2.44
CCO[C@@H]1OC(=O)C[C@@H]1NC(=O)[C@@H]1CCCN2C(=O)CC[C@H](NC(=O)c3nccc4ccccc34)C(=O)N12 [pralnacasan] | inactive: 1.67 | inactive: -0.594 | inactive: -1.78
C[C@@H]1CC[C@]2(C)CC[C@]3(C)C(=CC(=O)C4[C@@]5(C)CC[C@@H](O)[C@](C)(C(=O)O)C5CC[C@]43C)C2[C@H]1C (stereo partly drawn) [11-Keto-beta-boswellic acid] | inactive: -0.559 | inactive: 0.247 | inactive: -0.138
NC[C@H]1O[C@H](O[C@H]2[C@H](O)[C@@H](O[C@H]3O[C@H](CO)[C@@H](O)[C@H](N)[C@H]3O)[C@H](N)C[C@@H]2N)[C@H](O)[C@@H](O)[C@@H]1O [Kanamycin] | inactive: -0.625 | inactive: 2.85 | active: 5.3
O=C(O)Cc1ccccc1Oc1ccc(Cl)cc1Cl [fenclofenac] | inactive: -1.56 | inactive: -0.272 | inactive: -0.243
CCOc1ccc(Cc2cc([C@@H]3O[C@H](SC)[C@@H](O)[C@H](O)[C@H]3O)ccc2Cl)cc1 [Sotagliflozin] | inactive: 0.224 | inactive: -1.17 | inactive: 0.855
CCC[C@@H](NC(=O)N1C(=O)C(CC)(CC)[C@H]1Oc1ccc(CC(=O)O)cc1)c1ccc(C)cc1 | inactive: -1.02 | inactive: 0.276 | inactive: -1.31
Cc1nc2ccccn2c(=O)c1CCN1CCC(=C(c2ccc(F)cc2)c2ccc(F)cc2)CC1 [Seganserin] | inactive: -0.833 | inactive: -0.452 | inactive: 1.54
CCCN1CCCC12Cc1ccccc1CN(C(=O)CCCC(=O)O)C2 (configuration not stated) | – | inactive: -0.119 | inactive: 0.162
CC(C)(CCC(C(N)=O)(c1ccccc1)c1ccccc1)N1CC(Oc2cccc(O)c2)C1 | inactive: -0.884 | inactive: 0.135 | inactive: 1.54
COCCNC(=O)COc1ccc(OCCNC[C@H](O)COc2ccccc2)cc1 | inactive: -0.176 | inactive: -1.35 | inactive: 3.68
CC(C)(C)CC(=O)OCC(=O)[C@@]12OC(C)(C)O[C@@H]1C[C@H]1[C@@H]3CCC4=CC(=O)C=C[C@]4(C)[C@@]3(F)[C@@H](O)C[C@@]12C | inactive: 1.95 | inactive: -1.79 | inactive: 1.3

(next part)

Compound	TEAD-luciferase reporter activity (compound concentration: 2 uM)	TEAD-luciferase reporter activity (compound concentration: 200 nM)	TEAD-luciferase reporter activity (compound concentration: 10 uM)
CC(=O)Oc1cc(C)c(OC(C)=O)c2ccccc12	inactive: -1.85	inactive: 0.161	inactive: 0.467
COC(=O)C(C)(C)CCCOc1ccc(OCCCC(C)(C)C(=O)OC)c(-c2ccccc2)c1	inactive: 0.684	inactive: -2.24	inactive: -0.0223
CC(C)C1CCCN1Cc1nc2c(oc3ccccc32)c(=O)[nH]1 (configuration not stated)	inactive: -0.79	inactive: -2.15	inactive: 0.402
CCCC(=O)O[C@]1(C(=O)COC(=O)CC)[C@@H](C)C[C@H]2[C@@H]3CCC4=CC(=O)C=C[C@]4(C)[C@@]3(F)[C@@H](O)C[C@@]21C	inactive: -0.414	inactive: -0.897	inactive: 0.128
CCC(O)(c1ccccc1)c1cccc(C(F)(F)F)c1 (configuration not stated) [flumecinol]	inactive: -0.429	inactive: -1.58	inactive: -0.476
CCc1nc2c(C)cc(C(=O)O)nc2n1Cc1ccc(-c2ccccc2-c2nnn[nH]2)cc1	inactive: -1.03	inactive: -2.46	inactive: -2.08
O=C(O)CN(CCN(CC(=O)O)CC(=O)O)CCN(CC(=O)O)CC(=O)O	inactive: 0.007	inactive: -0.0482	inactive: 1.67
CCC(=O)OCC(=O)[C@@]1(OC(=O)CC)[C@@H](C)C[C@H]2[C@@H]3CCC4=CC(=O)C=C[C@]4(C)[C@@]3(Cl)[C@@H](O)C[C@@]21C [Beclomethasone dipropionate]	–	inactive: -1.02	inactive: 1.97
CCC(=O)OCC(=O)[C@@]1(OC(=O)CC)[C@@H](C)C[C@H]2[C@@H]3CCC4=CC(=O)C=C[C@]4(C)[C@@]3(Cl)[C@@H](O)C[C@@]21C [beclometasone dipropionate,Chiesi]	inactive: -0.797	–	–
Cc1cccc(COCCCOCc2coc(-c3ccccc3)n2)c1C(=O)O	–	inactive: -0.18	inactive: -0.389
O=C1CC2(CCCC2)CC(=O)N1CCCCNCC1COc2ccccc2O1 (configuration not stated)	inactive: -1.19	inactive: 0.366	inactive: -0.399
CCCC(CCC)N1CCn2nc(-c3ccc(Cl)cc3Cl)c3nc(C)cc1c32	inactive: -0.767	inactive: -1.11	inactive: 0.152
O=c1c(-c2ccc(O)cc2)coc2cc(O)cc(O)c12	inactive: 0.133	inactive: -1.49	inactive: 1.1
O=C(O)/C=C/c1ccc(O)cc1 [p-Hydroxycinnamic acid]	inactive: -0.0922	inactive: 2	inactive: 0.613
O=C(OCCOCCN1CCCCC1)N1c2ccccc2Sc2cccnc21	inactive: -0.295	inactive: -1.95	inactive: 1.13
CC(C)(O)c1ccc2c(c1)ncn2-c1cccc(-c2ccccc2C#N)c1	inactive: -1.51	inactive: 0.871	inactive: -0.931
CC(=O)N(C)c1ccc(Nc2cc(C)nc3ccc4nc[nH]c4c23)cc1 [Acodazole HCl]	–	inactive: -0.859	inactive: -0.541
CC(=O)N(C)c1ccc(Nc2cc(C)nc3ccc4nc[nH]c4c23)cc1	inactive: 1.12	–	–
CC(C)(N)C(=O)N[C@H](COCc1ccccc1)C(=O)N1CCC2(CC1)CN(S(C)(=O)=O)c1ccccc12 [Ibutamoren mesilate]	inactive: -1.07	inactive: -0.938	inactive: -0.739
CC(C)O	inactive: -0.485	inactive: -0.951	inactive: 0.105
CO/N=C1/C[C@@H](C(=O)NC[C@@H](O)c2ccccc2)N(C(=O)c2ccc(-c3ccccc3C)cc2)C1	inactive: -0.458	inactive: -0.295	inactive: 0.367
COc1cccc(C(=O)NC2CCCN(Cc3ccc(-c4cccc(OC)c4)cc3)C2)c1 (configuration not stated)	–	inactive: 0.222	inactive: 0.484
NC(=O)c1cccc2c(NC(CN3CCC3)c3ccc(Cl)c(C(F)(F)F)c3)ncnc12 (configuration not stated)	inactive: -0.433	inactive: -0.251	inactive: -1.48
COc1cc(N)c(Cl)cc1C(=O)NC1CCN(Cc2ccccc2)CC1 [clebopride]	inactive: -1.09	inactive: 1.68	inactive: 2.59
CC(C)[C@@H]1CC[C@@H](C)C[C@H]1OC(=O)[C@@H]1CCC(=O)N1	inactive: 1.05	inactive: -1.29	inactive: -0.86
COc1ccc(CNc2nnc(N3CCC(O)CC3)c3ccc(C#N)cc23)cc1Cl	inactive: -1.31	inactive: -2.08	inactive: -0.644
C[C@@H](NCCCn1ccnc1)c1ccccc1Cl	inactive: 0.0292	inactive: -0.797	inactive: -1.81

Reference: the supplement of paper PMC10735217
